The supplement of paper PMC10849652
Some of the results follow.

Sequences of proteins named here, by UniProt entry; tags and fusion partners are left off. A change or cut given only in a name is not applied to a line headed by its entry.
UniProt Q96SL8: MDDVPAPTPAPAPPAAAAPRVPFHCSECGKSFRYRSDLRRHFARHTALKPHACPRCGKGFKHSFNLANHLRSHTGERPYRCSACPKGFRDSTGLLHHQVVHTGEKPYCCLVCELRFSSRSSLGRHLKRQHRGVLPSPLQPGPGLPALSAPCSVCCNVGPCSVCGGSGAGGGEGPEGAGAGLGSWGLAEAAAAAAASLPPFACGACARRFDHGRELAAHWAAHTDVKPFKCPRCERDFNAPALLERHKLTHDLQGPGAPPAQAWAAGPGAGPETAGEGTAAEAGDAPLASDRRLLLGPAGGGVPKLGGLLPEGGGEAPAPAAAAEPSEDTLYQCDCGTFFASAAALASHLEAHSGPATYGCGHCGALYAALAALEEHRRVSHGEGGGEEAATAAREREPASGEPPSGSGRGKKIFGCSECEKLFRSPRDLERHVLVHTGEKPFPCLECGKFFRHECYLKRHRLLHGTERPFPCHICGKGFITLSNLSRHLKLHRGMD
UniProt Q13045: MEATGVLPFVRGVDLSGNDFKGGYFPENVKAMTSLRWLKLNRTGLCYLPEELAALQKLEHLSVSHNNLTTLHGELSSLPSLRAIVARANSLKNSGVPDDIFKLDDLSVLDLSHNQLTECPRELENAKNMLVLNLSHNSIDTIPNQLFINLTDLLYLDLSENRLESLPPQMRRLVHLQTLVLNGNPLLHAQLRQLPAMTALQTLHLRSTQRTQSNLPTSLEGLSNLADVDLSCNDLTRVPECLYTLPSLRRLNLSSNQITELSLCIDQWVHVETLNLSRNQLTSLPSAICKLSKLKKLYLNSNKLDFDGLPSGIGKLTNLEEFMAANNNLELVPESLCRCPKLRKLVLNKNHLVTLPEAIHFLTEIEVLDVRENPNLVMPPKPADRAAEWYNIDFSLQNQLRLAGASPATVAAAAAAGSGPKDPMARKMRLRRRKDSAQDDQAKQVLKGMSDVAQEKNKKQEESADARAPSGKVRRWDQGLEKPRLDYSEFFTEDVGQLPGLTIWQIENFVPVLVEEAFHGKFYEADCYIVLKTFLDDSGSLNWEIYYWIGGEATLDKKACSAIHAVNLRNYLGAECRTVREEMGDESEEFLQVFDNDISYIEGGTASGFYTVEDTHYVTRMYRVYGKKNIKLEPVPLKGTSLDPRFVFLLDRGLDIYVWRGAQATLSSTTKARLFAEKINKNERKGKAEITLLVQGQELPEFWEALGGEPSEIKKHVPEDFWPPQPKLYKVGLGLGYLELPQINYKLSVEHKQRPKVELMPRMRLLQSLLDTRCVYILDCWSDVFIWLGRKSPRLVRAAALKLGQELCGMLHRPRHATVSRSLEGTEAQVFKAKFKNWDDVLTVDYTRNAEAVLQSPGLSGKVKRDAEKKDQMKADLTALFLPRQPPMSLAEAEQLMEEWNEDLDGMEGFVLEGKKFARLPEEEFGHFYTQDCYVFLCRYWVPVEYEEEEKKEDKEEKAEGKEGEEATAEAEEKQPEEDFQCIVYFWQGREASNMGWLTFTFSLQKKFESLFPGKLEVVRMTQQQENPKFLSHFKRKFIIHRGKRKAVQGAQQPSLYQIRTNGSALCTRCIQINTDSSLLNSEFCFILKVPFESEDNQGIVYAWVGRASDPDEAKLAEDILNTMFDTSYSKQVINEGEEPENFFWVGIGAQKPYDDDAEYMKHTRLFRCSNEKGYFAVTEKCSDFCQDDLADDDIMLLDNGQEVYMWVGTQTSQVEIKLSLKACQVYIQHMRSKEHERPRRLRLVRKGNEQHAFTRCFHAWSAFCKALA
UniProt Q96JP0: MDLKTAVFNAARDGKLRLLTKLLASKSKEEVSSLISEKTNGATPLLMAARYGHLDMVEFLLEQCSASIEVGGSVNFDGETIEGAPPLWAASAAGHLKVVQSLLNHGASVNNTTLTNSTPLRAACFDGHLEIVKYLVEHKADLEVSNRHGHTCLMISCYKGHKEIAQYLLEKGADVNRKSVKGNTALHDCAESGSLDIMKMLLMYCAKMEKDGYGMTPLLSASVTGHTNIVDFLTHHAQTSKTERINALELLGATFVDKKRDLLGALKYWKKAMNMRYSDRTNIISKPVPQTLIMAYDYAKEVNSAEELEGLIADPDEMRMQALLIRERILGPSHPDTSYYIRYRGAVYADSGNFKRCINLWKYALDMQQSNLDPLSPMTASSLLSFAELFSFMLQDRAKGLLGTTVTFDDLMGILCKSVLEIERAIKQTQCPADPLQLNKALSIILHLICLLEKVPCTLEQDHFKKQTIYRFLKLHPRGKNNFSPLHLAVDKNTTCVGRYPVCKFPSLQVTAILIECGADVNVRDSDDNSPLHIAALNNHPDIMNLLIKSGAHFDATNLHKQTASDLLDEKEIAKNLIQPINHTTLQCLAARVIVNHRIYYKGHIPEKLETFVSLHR
UniProt Q9NVK5: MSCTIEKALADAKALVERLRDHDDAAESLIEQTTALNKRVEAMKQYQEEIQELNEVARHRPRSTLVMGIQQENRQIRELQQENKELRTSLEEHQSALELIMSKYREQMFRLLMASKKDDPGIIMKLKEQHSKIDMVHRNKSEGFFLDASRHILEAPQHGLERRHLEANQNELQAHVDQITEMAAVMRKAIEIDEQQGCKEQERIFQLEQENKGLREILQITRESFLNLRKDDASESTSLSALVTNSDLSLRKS
UniProt Q9Y324: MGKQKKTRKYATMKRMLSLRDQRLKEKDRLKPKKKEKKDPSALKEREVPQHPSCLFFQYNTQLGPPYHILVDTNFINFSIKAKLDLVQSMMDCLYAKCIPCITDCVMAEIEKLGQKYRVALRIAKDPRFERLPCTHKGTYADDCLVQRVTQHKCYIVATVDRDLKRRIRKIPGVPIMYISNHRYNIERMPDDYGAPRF
UniProt Q8IVF7, whole entry, looked up: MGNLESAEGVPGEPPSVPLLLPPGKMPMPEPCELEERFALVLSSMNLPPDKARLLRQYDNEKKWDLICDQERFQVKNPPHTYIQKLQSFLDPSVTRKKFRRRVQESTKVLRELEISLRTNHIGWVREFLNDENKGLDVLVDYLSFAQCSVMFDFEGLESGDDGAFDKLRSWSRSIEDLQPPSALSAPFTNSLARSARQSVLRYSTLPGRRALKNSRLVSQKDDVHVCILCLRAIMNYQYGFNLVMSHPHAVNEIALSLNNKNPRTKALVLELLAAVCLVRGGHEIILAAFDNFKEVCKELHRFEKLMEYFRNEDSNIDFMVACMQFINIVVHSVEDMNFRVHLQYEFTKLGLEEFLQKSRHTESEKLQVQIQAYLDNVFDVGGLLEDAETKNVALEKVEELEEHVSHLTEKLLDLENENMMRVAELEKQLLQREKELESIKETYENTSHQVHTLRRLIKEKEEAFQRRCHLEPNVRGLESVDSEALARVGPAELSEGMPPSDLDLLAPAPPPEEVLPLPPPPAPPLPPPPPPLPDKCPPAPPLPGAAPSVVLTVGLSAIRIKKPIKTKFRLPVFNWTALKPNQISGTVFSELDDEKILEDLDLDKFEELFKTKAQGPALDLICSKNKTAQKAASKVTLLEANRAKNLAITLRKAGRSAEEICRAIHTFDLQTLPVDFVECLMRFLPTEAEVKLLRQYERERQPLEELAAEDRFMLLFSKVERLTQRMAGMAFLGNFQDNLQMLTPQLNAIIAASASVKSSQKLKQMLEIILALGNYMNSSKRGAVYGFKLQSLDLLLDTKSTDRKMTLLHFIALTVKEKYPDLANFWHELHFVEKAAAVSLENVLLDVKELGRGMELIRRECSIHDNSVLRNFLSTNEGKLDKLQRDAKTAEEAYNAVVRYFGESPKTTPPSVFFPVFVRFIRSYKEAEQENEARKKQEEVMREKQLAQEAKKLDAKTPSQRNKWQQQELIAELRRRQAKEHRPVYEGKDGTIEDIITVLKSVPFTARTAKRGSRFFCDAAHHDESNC
UniProt Q8NFZ0: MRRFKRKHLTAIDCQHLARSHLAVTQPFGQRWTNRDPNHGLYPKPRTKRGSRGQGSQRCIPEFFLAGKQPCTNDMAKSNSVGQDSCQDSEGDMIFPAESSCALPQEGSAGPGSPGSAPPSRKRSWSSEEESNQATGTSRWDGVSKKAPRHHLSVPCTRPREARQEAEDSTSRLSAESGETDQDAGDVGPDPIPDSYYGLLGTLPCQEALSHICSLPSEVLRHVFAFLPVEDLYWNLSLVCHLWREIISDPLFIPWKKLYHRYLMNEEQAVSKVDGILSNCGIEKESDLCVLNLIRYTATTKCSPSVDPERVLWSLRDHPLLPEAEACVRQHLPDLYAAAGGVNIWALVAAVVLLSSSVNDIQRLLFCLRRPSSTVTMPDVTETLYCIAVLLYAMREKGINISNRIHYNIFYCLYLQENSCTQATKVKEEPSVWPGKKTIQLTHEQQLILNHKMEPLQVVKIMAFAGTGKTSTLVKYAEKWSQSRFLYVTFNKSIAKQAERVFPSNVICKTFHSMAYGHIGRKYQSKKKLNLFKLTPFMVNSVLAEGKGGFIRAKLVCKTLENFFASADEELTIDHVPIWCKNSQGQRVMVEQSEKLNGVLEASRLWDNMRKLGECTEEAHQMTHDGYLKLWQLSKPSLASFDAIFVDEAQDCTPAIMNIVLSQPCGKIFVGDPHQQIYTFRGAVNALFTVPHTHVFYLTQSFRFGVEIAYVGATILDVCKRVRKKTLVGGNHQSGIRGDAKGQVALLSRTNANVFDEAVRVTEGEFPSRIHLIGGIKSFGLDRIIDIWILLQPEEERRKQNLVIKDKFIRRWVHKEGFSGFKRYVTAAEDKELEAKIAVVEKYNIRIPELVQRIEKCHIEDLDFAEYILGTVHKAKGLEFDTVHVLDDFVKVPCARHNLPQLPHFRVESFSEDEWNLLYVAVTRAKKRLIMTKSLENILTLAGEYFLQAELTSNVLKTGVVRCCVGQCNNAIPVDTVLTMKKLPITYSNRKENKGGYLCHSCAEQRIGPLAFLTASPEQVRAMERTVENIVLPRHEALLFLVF
UniProt Q7Z6M2: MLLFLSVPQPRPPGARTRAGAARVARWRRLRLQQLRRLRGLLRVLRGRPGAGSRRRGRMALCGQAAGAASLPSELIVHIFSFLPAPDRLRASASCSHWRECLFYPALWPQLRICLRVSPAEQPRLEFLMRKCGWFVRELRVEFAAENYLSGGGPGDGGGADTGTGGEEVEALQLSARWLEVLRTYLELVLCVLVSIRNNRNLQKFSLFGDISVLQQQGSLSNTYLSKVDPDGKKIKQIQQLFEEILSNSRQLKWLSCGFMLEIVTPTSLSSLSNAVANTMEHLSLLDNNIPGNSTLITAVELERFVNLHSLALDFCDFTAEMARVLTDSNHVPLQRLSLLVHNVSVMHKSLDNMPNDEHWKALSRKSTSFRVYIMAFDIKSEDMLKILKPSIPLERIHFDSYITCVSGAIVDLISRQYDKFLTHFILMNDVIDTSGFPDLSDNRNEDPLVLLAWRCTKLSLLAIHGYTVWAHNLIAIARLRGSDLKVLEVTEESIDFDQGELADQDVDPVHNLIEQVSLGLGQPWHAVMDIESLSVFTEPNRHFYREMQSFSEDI
UniProt Q4VC44: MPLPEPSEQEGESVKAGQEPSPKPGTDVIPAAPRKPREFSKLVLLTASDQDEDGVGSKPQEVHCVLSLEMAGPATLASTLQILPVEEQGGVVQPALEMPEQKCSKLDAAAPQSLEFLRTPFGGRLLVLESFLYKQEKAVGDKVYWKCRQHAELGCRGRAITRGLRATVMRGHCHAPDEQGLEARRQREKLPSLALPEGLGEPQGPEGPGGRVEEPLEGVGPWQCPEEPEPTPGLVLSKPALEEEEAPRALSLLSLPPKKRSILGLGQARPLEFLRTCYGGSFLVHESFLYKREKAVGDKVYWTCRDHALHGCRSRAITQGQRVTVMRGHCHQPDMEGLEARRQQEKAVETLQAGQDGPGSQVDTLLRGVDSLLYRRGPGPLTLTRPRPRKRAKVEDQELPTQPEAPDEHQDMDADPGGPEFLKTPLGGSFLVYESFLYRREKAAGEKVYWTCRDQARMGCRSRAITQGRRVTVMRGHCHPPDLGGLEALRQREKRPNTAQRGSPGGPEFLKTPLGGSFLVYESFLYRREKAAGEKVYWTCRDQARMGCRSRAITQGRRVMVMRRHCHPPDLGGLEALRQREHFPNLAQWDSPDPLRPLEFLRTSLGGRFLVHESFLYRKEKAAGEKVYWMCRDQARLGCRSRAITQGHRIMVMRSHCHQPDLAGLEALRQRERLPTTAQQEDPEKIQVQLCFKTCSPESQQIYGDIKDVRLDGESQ
UniProt O95684: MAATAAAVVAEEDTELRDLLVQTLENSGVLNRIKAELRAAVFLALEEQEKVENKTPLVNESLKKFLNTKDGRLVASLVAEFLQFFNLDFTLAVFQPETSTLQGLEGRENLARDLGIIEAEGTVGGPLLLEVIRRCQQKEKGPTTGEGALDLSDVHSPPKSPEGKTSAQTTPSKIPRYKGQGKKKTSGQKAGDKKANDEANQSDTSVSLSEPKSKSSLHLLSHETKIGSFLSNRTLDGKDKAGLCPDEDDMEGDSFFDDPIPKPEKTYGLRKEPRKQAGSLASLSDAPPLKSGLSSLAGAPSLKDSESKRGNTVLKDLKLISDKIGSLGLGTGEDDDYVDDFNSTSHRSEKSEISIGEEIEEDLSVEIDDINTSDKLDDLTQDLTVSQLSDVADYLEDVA

Assays:
Experiment in all cases: log2 fold change, soluble protein after heating vs DMSO (PISA); higher = thermal stabilisation; K562 lysate, 10 uM; active = over 0.2 and 3.5 SD of the protein, either way, in both replicates (recomputed)
[1] = compound: C1=CC=C(C=C1)C2=NC(=C(N2)C3=CC=NC=C3)C4=CC(=C(C=C4)Cl)O
Outline: (§1)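 K562 pellets were dounce-homogenised in PBS pH 7.4 containing 1 mM MgCl2, and the crude extract, at 1 mg/mL protein, was exposed to 10 μM compound for 30 min. Aliquots were heated for 3 min across 48°C-58°C, pooled, brought to 0.5% NP-40 at 4°C and spun at 21,000xg for 90 min, with the supernatant taken as soluble protein. TMTpro 16plex LC-MS/MS with equalised channel sums quantified that protein. Values are log-two fold changes in thermal stability relative to solvent controls, taken from duplicates.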

[2] = compound: C1CCN(C1)C(=O)NC2=CC=CC(=C2)NC3=NC=C(C(=N3)NCCC4=CN=CN4)Br
Outline: as §1

[3] = compound: C1CN(CCC1(CC2=CC=C(C=C2)Cl)N)C3=NC=NC4=C3C=CN4
Outline: as §1

IRAK-1-4 Inhibitor I = compound: C1COCCN1CCN2C3=CC=CC=C3N=C2NC(=O)C4=CC(=CC=C4)[N+](=O)[O-] [IRAK-1-4 Inhibitor I]
Outline: as §1

ralimetinib = compound: CC(C)(C)Cn1c(N)nc2ccc(-c3[nH]c(C(C)(C)C)nc3-c3ccc(F)cc3)nc21 [ralimetinib]
Outline: as §1

[4] = compound: CC(C)(O)CC(=O)NCCn1ccc2ncnc(Nc3ccc(Oc4cccc(C(F)(F)F)c4)c(Cl)c3)c21
Outline: as §1

[5] = compound: CC1=C(C(CC(=O)N1)C2=CC=C(C=C2)C(F)(F)F)C(=O)NC3=C(C=C4C(=C3)C=NN4)F
Outline: as §1

[6] = compound: CC1=C(C2=C(C=C1)C(=O)C3=CC=CC=C3N2CCCN)C
Outline: as §1

[7] = compound: CC1=C(C=C(C=C1)NC(=O)C2=CC(=CC=C2)N(C)C)NC(=O)C3=CC=C(C=C3)O
Outline: as §1

[8] = compound: C1=CC2=NC=CN=C2C=C1/C=C/3\C(=O)NC(=O)S3
Outline: as §1

ibrutinib = compound: C=CC(=O)N1CCC[C@@H](n2nc(-c3ccc(Oc4ccccc4)cc3)c3c(N)ncnc32)C1 [ibrutinib]
Outline: as §1

[9] = compound: CC(=O)c1cnc2ccc(-c3cc(Cl)c(O)c(Cl)c3)nc2c1N[C@H]1CC[C@H](CN(C)C)CC1
Outline: as §1

[10] = compound: CC1=CC=C(C=C1)SC2=C3C=C(SC3=CN=C2)C(=O)N
Outline: as §1

[11] = compound: C/C(=N\NC(=O)C1=CC(=CC=C1)S(=O)(=O)N2CCOCC2)/C3=C(C=CC(=C3)Cl)O
Outline: as §1

[12] = compound: C1=CC2=C(C=CC(=C2)/C=C\3/C(=O)NC(=NCC4=CC=CS4)S3)N=C1
Outline: as §1

[13] = compound: C1=CC=C2C(=C1)C3=NNC4=CC=CC(=C43)C2=O
Outline: as §1

[14] = compound: CC1=C(C=C(C=C1)NC(=O)C2=CC(=CC=C2)C(C)(C)C#N)NC3=CC4=C(C=C3)N=CN(C4=O)C
Outline: as §1

Measured: log2 fold change

FKBP10 (UniProt Q96AY3)
inactive: [1] -0.042 | [2] 0.13 | [3] -0.074 | IRAK-1-4 Inhibitor I 0.119 | ralimetinib -0.113 | [4] -0.072 | [5] 0.099 | [6] -0.275 | [7] 0.085

FIZ1 (UniProt Q96SL8)
inactive: [8] -0.061 | [1] -0.043 | IRAK-1-4 Inhibitor I -0.062 | ibrutinib 0.07 | [9] 0.187 | ralimetinib -0.093 | [4] -0.056 | [5] 0.012 | [7] -0.06 | [10] -0.028

FLII isoform 2 (UniProt Q13045)
inactive: [11] -0.079 | [12] -0.189 | [13] -0.154 | [2] -0.065 | [3] -0.001 | [9] 0.072 | [10] 0.122

FBLN1 (UniProt P23142)
inactive: [11] 0.085 | [12] -0.222 | [8] 0.033 | [1] -0.071 | [13] 0.142 | IRAK-1-4 Inhibitor I 0.005 | ibrutinib -0.065 | ralimetinib -0.032 | [4] 0.057 | [5] 0.089 | [14] 0.147 | [7] -0.014

FEM1C (UniProt Q96JP0)
inactive: [6] -0.001

FGFR1OP2 isoform 2 (UniProt Q9NVK5)
inactive: [14] -0.004

FITM2 (UniProt Q8N6M3)
inactive: [8] 0.01 | ibrutinib -0.059 | [9] 0.012 | [5] -0.204 | [10] -0.071

FER isoform 3 (UniProt P16591)
inactive: [9] -0.061 | [14] -0.207 | [10] 0.184

FCF1 (UniProt Q9Y324)
inactive: [5] 0.041 | [6] -0.005 | [14] -0.034

FDPS, A0A087WVN4
inactive: [9] 0.011 | [10] 0.144

FMNL3 (UniProt Q8IVF7)
inactive: [8] 0.018 | ibrutinib 0.038 | [9] 0.005 | [10] -0.061

FASTKD3 (UniProt Q14CZ7)
inactive: [2] 0.137 | [3] -0.159 | [9] 0.054 | [5] -0.16 | [10] -0.181

FNTA (UniProt H0YCW1)
inactive: [1] 0.052 | IRAK-1-4 Inhibitor I 0.01 | ralimetinib -0.021 | [4] -0.015 | [7] -0.033

FILIP1L (UniProt Q4L180)
inactive: [1] 0.151 | [2] -0.154 | [3] -0.094 | IRAK-1-4 Inhibitor I 0.001 | [9] 0.123 | ralimetinib 0.162 | [4] 0.062 | [6] -0.061 | [7] -0.268 | [10] -0.186

FBH1 isoform 2 (UniProt Q8NFZ0)
inactive: [8] 0.04 | ibrutinib -0.037 | [5] -0.039 | [14] -0.032

FBXL15 (UniProt Q9H469)
inactive: [11] 0.037 | [12] 0.125 | [1] 0.163 | [13] -0.03 | [2] -0.017 | [3] -0.016 | IRAK-1-4 Inhibitor I 0.04 | ralimetinib 0.069 | [4] -0.222 | [5] 0.029 | [6] -0.015 | [14] 0.139 | [7] -0.142

FBXO28 (UniProt Q9NVF7)
inactive: [1] -0.194 | IRAK-1-4 Inhibitor I -0.019 | [9] -0.006 | ralimetinib 0.073 | [4] 0.316 | [7] -0.007 | [10] 0.026

Taken from the results shown (2 entries):
FILIP1L (UniProt Q4L180)
inactive: [1] 0.151 | [2] -0.154 | [3] -0.094 | IRAK-1-4 Inhibitor I 0.001 | [9] 0.123 | ralimetinib 0.162 | [4] 0.062 | [6] -0.061 | [7] -0.268 | [10] -0.186

FBH1 isoform 2 (UniProt Q8NFZ0)
inactive: [8] 0.04 | ibrutinib -0.037 | [5] -0.039 | [14] -0.032

(list continues)

FBXW2 (UniProt Q9UKT8)
inactive: [11] 0.04 | [12] 0.046 | [8] 0.104 | [1] -0.028 | [13] 0.118 | IRAK-1-4 Inhibitor I -0.172 | ibrutinib -0.029 | ralimetinib -0.036 | [4] -0.137 | [6] 0 | [14] -0.07 | [7] 0.103

FMR1NB (UniProt Q8N0W7)
inactive: [14] -0.28

FANCG (UniProt O15287)
inactive: [11] 0.053 | [12] -0.444 | [1] -0.038 | [13] -0.195 | [2] -0.095 | [3] -0.028 | IRAK-1-4 Inhibitor I -0.151 | ralimetinib -0.116 | [4] -0.046 | [5] -0.09 | [14] 0.059 | [7] 0.138

FCGR2B (UniProt P31994)
inactive: [1] 0.001 | [2] 0.143 | [3] -0.113 | IRAK-1-4 Inhibitor I -0.034 | ralimetinib 0 | [4] 0.096 | [14] -0.085 | [7] 0.014

FBXO33 (UniProt Q7Z6M2)
inactive: [1] -0.009 | IRAK-1-4 Inhibitor I -0.005 | ralimetinib 0.055 | [4] -0.169 | [7] 0.112

FOS (UniProt P01100)
inactive: [2] -0.001 | [3] -0.188

FLYWCH1 isoform 3 (UniProt Q4VC44)
inactive: [1] -0.028 | IRAK-1-4 Inhibitor I -0.017 | [9] 0.073 | ralimetinib -0.048 | [4] -0.045 | [5] 0.109 | [6] 0.114 | [14] -0.232 | [7] 0.169 | [10] -0.159

FAM83H (UniProt Q6ZRV2)
inactive: [11] 0.038 | [12] 0.051 | [13] -0.179 | [2] 0.122 | [3] 0.092 | [9] -0.133 | [10] 0.07

FCHSD2 (UniProt O94868)
inactive: [9] -0.027 | [5] -0.175 | [6] 0.08 | [10] -0.04

FEN1 (UniProt I3L3E9)
inactive: [11] 0.015 | [12] -0.061 | [1] 0.03 | [13] 0.009 | [2] 0.014 | [3] -0.07 | IRAK-1-4 Inhibitor I 0.036 | [9] -0.053 | ralimetinib 0.161 | [4] 0.016 | [5] -0.059 | [7] 0.069 | [10] 0.108

FOSL1 (UniProt P15407)
inactive: [9] 0.074 | [5] 0.155 | [6] 0.034 | [14] 0.021 | [10] -0.081

FGFR1OP isoform 3 (UniProt O95684)
inactive: [11] 0.057 | [12] 0.226 | [13] 0.169

FANCA (UniProt O15360)
inactive: [11] -0.201 | [12] -0.03 | [13] -0.066 | [2] -0.054 | [3] 0.065 | [6] -0.127 | [14] 0.036
